Measurements taken from the supplement of paper PMC3334620.
Over roughly 33,000 sequences, “E-score (-0.5 to 0.5)” has its median near -0.016; the highest 2% begin near 0.3. The list shows a part of the results.

What follows are sequences tested against T1, Yer184c (UniProt P39961) (assay: PBM E-score (8-mer binding enrichment) (E-score (-0.5 to 0.5)); higher = stronger / more preferred TF binding). Details: protein concentration: 100 nM; construct: GST-full length.
T1 sequence: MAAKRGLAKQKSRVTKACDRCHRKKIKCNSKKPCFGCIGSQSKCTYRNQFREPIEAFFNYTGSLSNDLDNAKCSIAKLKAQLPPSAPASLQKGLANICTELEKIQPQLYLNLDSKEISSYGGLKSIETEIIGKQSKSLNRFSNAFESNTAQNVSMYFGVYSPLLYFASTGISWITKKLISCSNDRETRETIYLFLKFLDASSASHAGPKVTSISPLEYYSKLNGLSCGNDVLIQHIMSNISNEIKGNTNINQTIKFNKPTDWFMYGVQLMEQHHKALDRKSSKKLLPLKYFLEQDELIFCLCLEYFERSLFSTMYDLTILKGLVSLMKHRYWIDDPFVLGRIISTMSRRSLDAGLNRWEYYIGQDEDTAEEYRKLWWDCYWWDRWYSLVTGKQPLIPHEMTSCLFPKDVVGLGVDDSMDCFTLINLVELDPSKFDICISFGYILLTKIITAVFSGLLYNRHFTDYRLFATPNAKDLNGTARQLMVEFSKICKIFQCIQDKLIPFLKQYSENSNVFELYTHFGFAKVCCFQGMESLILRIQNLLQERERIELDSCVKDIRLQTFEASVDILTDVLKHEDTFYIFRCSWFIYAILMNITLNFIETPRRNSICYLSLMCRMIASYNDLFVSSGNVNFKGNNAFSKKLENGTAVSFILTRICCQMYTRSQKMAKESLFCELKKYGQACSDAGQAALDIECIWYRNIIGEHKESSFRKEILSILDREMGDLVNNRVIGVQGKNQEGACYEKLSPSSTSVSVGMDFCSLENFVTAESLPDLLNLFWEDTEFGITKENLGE
How it was run: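 Each ungapped eight-base word and its reverse complement, pooled, received an E-score from the Universal PBM Analysis Suite. Underlying scans, normalised with masliner, recorded fluorescent anti-GST bound to GST-tagged yeast transcription factors. These were applied at about 100-200 nM to universal all-10-mer Agilent arrays double-stranded by primer extension.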

Row | Sequence | PBM E-score
1 | ATCGTCTA | -0.106
2 | AATTGTCG | 0.035
3 | TATGGCCA | -0.148
4 | AGTCGACA | 0.0802
5 | CTTAACTC | 0.122
6 | GGCGATGA | -0.23
7 | AGAGCTCT | -0.391
8 | AGCCCGAG | 0.00855
9 | CGGCCAGC | 0.172
10 | ACCAGCAC | -0.205
11 | CCAAGCCG | 0.0585
12 | TAAGTTGA | 0.131
13 | CCCAGAGC | -0.172
14 | GGCATACA | -0.0398
15 | ACAGTCAC | -0.257
16 | ACTTCCCT | -0.101
17 | CAGGCGTA | -0.00314
18 | GAGTGCCC | -0.181
19 | GGTTCACA | 0.0396
20 | ATCCGCGA | 0.105
21 | AAGGTATA | 0.138
22 | TAAGCGCA | -0.214
23 | ACCAATGG | -0.123
24 | CACCCACC | -0.193
25 | CCCCAGAA | -0.161

Row | Sequence | PBM E-score
26 | ACGACTAG | -0.0136
27 | CATGGCGC | -0.0606
28 | CACGACGC | -0.16
29 | ACGGGGCG | 0.036
30 | CGCCCGCC | 0.0433
31 | AGATTTGC | 0.0379
32 | ATCCATTA | 0.00687
33 | CGCATCCG | 0.185
34 | ATACATCG | 0.0194
35 | AACGCATG | -0.106
36 | AGTGCAGA | -0.153
37 | AACAAGTT | 0.0697
38 | AGGTCGTA | -0.145
39 | ACTCCTCA | -0.0931
40 | AGTACAGC | 0.00983
41 | AAAACCGC | 0.0468
42 | ATACAATC | -0.00013
43 | AAACTCCA | -0.0116
44 | AGTCATGG | -0.00924
45 | ACTACCAG | -0.224
46 | CGTGTGGC | -0.296
47 | CTCACACC | -0.234
48 | AATAAAGT | 0.155
49 | AGAGAATG | 0.0031
50 | TCTATCAA | -0.0404

Row | Sequence | PBM E-score
51 | GCTATGCC | -0.12
52 | CCCTGCTA | -0.272
53 | ATCGCCAA | -0.166
54 | GGGTCGCA | -0.00048
55 | ACCATGCG | -0.0152
56 | CATTGGTA | -0.0178
57 | ATGTCCTC | -0.109
58 | CGCCTATC | -0.183
59 | GCTCTTGA | -0.14
60 | AGTATCCA | -0.00531
61 | ATCAAGAA | 0.00831
62 | AAGATGAA | 0.0422
63 | ACCCCTAT | -0.315
64 | GTCAACGA | -0.0301
65 | CGACCTGC | -0.0821
66 | CAGTGTGA | 0.0148
67 | CGATGTGC | -0.101
68 | TAACGCCA | -0.14
69 | TGATTACA | 0.16
70 | AGCTACTG | 0.0911
71 | ATGCCTAG | -0.0563
72 | CAACCTCC | -0.262
73 | CAAAACAC | 0.102
74 | TAACTACA | 0.125
75 | CACCCTCC | -0.122

Row | Sequence | PBM E-score
76 | CGATCCGA | 0.305
77 | CTGCGCAA | -0.0246
78 | CTGTATGA | 0.111
79 | ACGTAGAG | -0.221
80 | AACGAGCT | -0.0817
81 | AAACCTTC | -0.104
82 | ATGAACTG | 0.205
83 | AGTGGAAG | -0.141
84 | CCCGACTC | -0.0899
85 | CCTCAGCG | 0.0964
86 | GATTGTTA | 0.105
87 | CCAGTAGC | 0.0295
88 | ACTCCCAC | -0.135
89 | GATGGCCA | -0.0978
90 | GTGCGTTA | 0.128
91 | TGATACAA | 0.118
92 | ACCATTCT | -0.124
93 | CACCCTGA | -0.246
94 | GACAGGAA | 0.21
95 | AGTGAGAA | 0.118
96 | GCTCGCTA | -0.121
97 | AGTACCAT | -0.115
98 | ATAGGAGG | -0.285
99 | TGGAATAA | 0.0331
100 | CAGACATG | -0.172

Row | Sequence | PBM E-score
101 | AGCTACCC | -0.139
102 | ATTATGCC | 0.16
103 | CGACCGTC | -0.0698
104 | ACAACCGA | 0.261
105 | AGCGCGCG | 0.0708
106 | AATTCACT | 0.133
107 | ACAGTCCT | -0.188
108 | AAACCTCG | 0.0132
109 | ATCCTCAC | -0.00718
110 | ATTGAAGA | -0.0543
111 | TCGCACCA | -0.00893
112 | CGCACGGA | 0.225
113 | GAGATTAC | -0.0877
114 | CGGTCGCC | 0.151
115 | CTACACCC | -0.268
116 | GCGGCCAC | -0.14
117 | CGGTATCC | 0.109
118 | TTACCCAA | -0.203
119 | ACCACACT | -0.0486
120 | CTGAGGGC | -0.336
121 | ATAAATAT | 0.202
122 | TAGCTTGA | -0.0505
123 | CCCTCGCG | -0.0354
124 | TAGTGCGA | -0.0299
125 | GACGAAGA | 0.0167

Row | Sequence | PBM E-score
126 | ATAATTGA | 0.104
127 | CGTGTAAC | -0.0498
128 | ATCCCTCC | -0.0857
129 | GACTTAGC | -0.214
130 | ACTTGTAG | -0.0776
131 | ACCTCGGC | 0.238
132 | ACAGTGCC | 0.102
133 | TCCTCGAA | 0.0309
134 | GAAAATTC | 0.168
135 | ATCCGCAC | 0.158
136 | GGATACAC | -0.0694
137 | CACAATCA | 0.00768
138 | CCATAAAG | 0.053
139 | AGACGCAT | -0.0112
140 | ATCTTGCC | 0.0494
141 | GAACCGCC | -0.0289
142 | TCCCCGGA | 0.224
143 | CTAGTTTC | -0.0582
144 | CGTTCGCC | -0.0277
145 | CAGGGGAA | -0.196
146 | CGTAAGGC | -0.259
147 | CTGATAAC | 0.119
148 | ATCTAAAA | 0.0903
149 | AATTTTTC | 0.155
150 | CGCACTCC | -0.173

As entered above:
Under PBM E-score, ATCTTGCC is entered as 0.0494
Under PBM E-score, ATCCCTCC is entered as -0.0857
Under PBM E-score, CGTAAGGC is entered as -0.259
Under PBM E-score, GGATACAC is entered as -0.0694

The list continues.

Row | Sequence | PBM E-score
151 | ACCCGAAT | 0.104
152 | ACTGACTG | -0.23
153 | TAATACTA | 0.275
154 | AACGGACA | 0.202
155 | CCTAATGC | -0.233
156 | AGGCGTAC | 0.00758
157 | ACGGAGCC | 0.0323
158 | ATAATGAG | -0.0643
159 | CACACCTG | -0.271
160 | GCCTACCA | -0.123
161 | AGGCACGG | 0.0207
162 | CTCAGTTC | -0.0629
163 | GCATAGTA | 0.0529
164 | AAGACGTG | 0.0213
165 | AGATTGAT | -0.071
166 | GCCGTCTA | -0.066
167 | CATGTTGA | 0.192
168 | CCATGCTA | -0.152
169 | ATCTGTCG | 0.119
170 | ATCCCTTA | -0.0553
171 | TCTTCAAA | 0.11
172 | GTAACAAC | 0.0579
